Reference: PubChem BioAssay AID2685 (National Center for Advancing Translational Sciences (NCATS), 2010)
This is one part of the list. Further columns of the screen follow, without active or inactive calls. Compounds called inactive in the main read-out are mostly missing here. Words in brackets tell the shape of the fitted curve; partial curves, single points and poor fits give uncertain potencies.

Experiment: qHTS Assay for Lipid Storage Modulators in Drosophila S3 Cells;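 as to cell number change: cells counted by Cell Tracker Red CMTPX staining in the red channel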
Conditions: BODIPY lipid droplet fluorescence, 18-24 h; for cell number change: measured here: cell count max response, cells fed with added oleic acid
In short: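 Drosophila S3 cells got compounds at several concentrations plus oleic acid (400 uM solution). Laser-scanning cytometry with 488 nm excitation read lipid droplets at 500-530 nm and cells at 575-640 nm. Percent activity was relative to 20 uM Triacsin C.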

[1] = measured here: cell number channel AC50, cells fed with added oleic acid
[2] = measured here: lipid fluorescence (Fed channel) AC50, cells fed with added oleic acid

Row | Compound | cell number change [%] | AC50 [1] | AC50 [2]
1 | Cc1[nH]c(=O)c(C(=O)/C=C/c2ccccc2)c2c1CCCC2 | -52.9 | 29.1 µM [falling, single point] | 0.58 µM [falling, single point]
2 | Cc1ccc(N(CC(=O)N2CCOCC2)S(C)(=O)=O)cc1Cl | 1.98 |  | 0.731 µM [rising, single point]
3 | Cn1nnnc1SCC(=O)NC(=O)NCc1ccccc1 | 168 | 29.1 µM [rising, single point] | 
4 | CC(OC(=O)c1nc(Cl)ccc1Cl)C(=O)c1ccccc1 (stereo not drawn) | -1.27 |  | 6.51 µM [falling, single point]
5 | O=S(=O)(Nc1ccc(-c2csc(-c3ccccc3)n2)cc1)c1ccc(F)cc1 | -56.8 | 29.1 µM [falling, single point] | 29.1 µM [falling, single point]
6 | O=C(CNC(=O)c1sc2ccccc2c1Cl)Nc1ccccc1F | 132 | 9.2 µM [rising, partial curve] | 
7 | CCOc1ccc(NC(=O)CN(C)C(=O)CCNC(=O)c2ccccc2Cl)cc1OCC | 10.4 |  | 
8 | CSc1nc2nc(-c3ccccc3)cc(=O)n2[nH]1 | -3.2 | 6.51 µM [falling, partial curve, poor fit] | 
9 | COc1ccc(CNC(=O)c2cccc(N3CCCC3=O)c2)cc1 |  |  | 29.1 µM [rising, single point]
10 | COc1cccc(S(=O)(=O)c2nc(C)c3c(n2)CCC3)c1 | -27.6 |  | 29.1 µM [falling, single point]
11 | COC(=O)c1ccc(CNC(=O)N2CCN(S(=O)(=O)c3ccc(C)cc3)CC2)cc1 | 17.9 | 0.0651 µM [rising, full curve, poor fit] | 0.146 µM [rising, partial curve, poor fit]
12 | CCOC(=O)N1CCC(n2c(SCC(=O)NCc3ccco3)nc3ccsc3c2=O)CC1 | 196 | 1.84 µM [rising, partial curve] | 1.16 µM [rising, full curve]
13 | CC(C)Cc1nc(N2CCC(C(N)=O)CC2)c2nnn(Cc3ccccc3)c2n1 |  |  | 0.103 µM [rising, single point]
14 | Cc1sc2ncnc(N3CCC(C(=O)Nc4cc(S(C)(=O)=O)ccc4Cl)CC3)c2c1C | 69.9 | 14.6 µM [rising, partial curve] | 
15 | Cc1ccc(C(C)n2cc(C(=O)NCCN3CCN(C)CC3)nn2)cc1 (stereo not drawn) | -86.6 | 18.4 µM [falling, single point] | 18.4 µM [falling, single point]
16 | CCOc1cc(C(=O)Nc2cc(C)ccc2OC)ccc1OCC(=O)N1CCCCC1 | 16.9 |  | 0.517 µM [rising, full curve]
17 | O=C(Nc1cccnc1)c1cc([N+](=O)[O-])ccc1Cl | 11.3 |  | 0.651 µM [falling, single point]
18 | CC(Sc1nnc(-c2ccco2)n1C)C(=O)Nc1ccc(N2CCOCC2)cc1 (stereo not drawn) | -8.08 | 0.092 µM [falling, full curve, poor fit] | 
19 | Cc1ccc(Nc2nnc(SCC(=O)NCCN3C(=O)CSC3=O)s2)cc1 | -18.3 |  | 10.3 µM [falling, single point]
20 | COc1cc(C(=O)OCCC(C)C)cc(OC)c1O | -13.4 |  | 6.51 µM [rising, single point]

Row | Compound | cell number change [%] | AC50 [1] | AC50 [2]
21 | CCOC(=O)N1CCN(C(=S)Nc2ccccc2C(C)C)CC1 | -10.5 |  | 0.82 µM [falling, single point]
22 | COc1ccc(C(=O)OCC(=O)Nc2ccc(OC)c(S(=O)(=O)N3CCCCC3)c2)cc1[N+](=O)[O-] | 23.3 |  | 
23 | COc1ccc(NC(=O)/C(=C/c2ccc3c(c2)OCO3)NC(C)=O)cc1 | 4.19 |  | 
24 | COc1ccc(CNC(=O)CSCc2cccc(Cl)c2)cc1 | 5.81 |  | 1.16 µM [rising, full curve]
25 | CCOC(=O)Cn1c(=NC(=O)c2sc3ccccc3c2Cl)sc2cc(S(N)(=O)=O)ccc21 | 18.5 | 0.461 µM [rising, partial curve, poor fit] | 29.1 µM [falling, single point]
26 | O=C(Nc1cccnc1Cl)c1ccc(S(=O)(=O)N2CCCCCC2)cc1 | 12.4 | 0.517 µM [falling, single point] | 0.82 µM [falling, partial curve, poor fit]
27 | Cc1ccc(CNC(=O)C2CCCN(S(=O)(=O)c3ccc(F)cc3)C2)cc1 (stereo not drawn) | 22.5 |  | 29.1 µM [rising, single point]
28 | Cc1ccc(-n2nc3c(=O)n(CCCC(=O)NCCc4ccccc4C)nc(C)c3c2C)cc1 | 11.8 |  | 
29 | CC(C)C(=O)N1CCN(c2ccc(NC(=O)c3ccc4c(c3)OCCO4)cc2)CC1 | 8.34 |  | 0.146 µM [falling, full curve, poor fit]
30 | COc1cc(NC(=O)CN2CCC(C(N)=O)(N3CCCCC3)CC2)c(OC)cc1Cl | -22.2 | 0.103 µM [falling, full curve, poor fit] | 3.66 µM [falling, partial curve, poor fit]
31 | Nc1ncnc(Nc2ccccc2C(F)(F)F)n1 | 2.66 |  | 0.82 µM [falling, partial curve, poor fit]
32 | Cc1occc(=O)c1OC(=O)Nc1ccc(Cl)c(Cl)c1 | -50.3 | 20.6 µM [falling, partial curve] | 20.6 µM [falling, partial curve]
33 | CCOC(=O)N1CCN(C(=S)NC(=O)c2ccc(F)c(F)c2)CC1 | 2.47 |  | 1.3 µM [falling, full curve]
34 | CCc1cccc(CC)c1-n1c(SCC(=O)c2c(N)n(C)c(=O)n(C)c2=O)nnc1-c1cccnc1 | 22.3 | 0.731 µM [falling, single point] | 
35 | CN(Cc1ccccc1)C(=O)c1nc[nH]c1C(=O)N1CCN(C(=O)OC(C)(C)C)CC1 | 15.5 |  | 0.82 µM [rising, full curve, poor fit]
36 | O=C(NCCCN1CCOCC1)c1cc2nc(-c3ccco3)cc(C(F)(F)F)n2n1 | 13.3 |  | 
37 | Cc1ccc(N(C(=O)Cn2nnc(-c3cccs3)n2)C(C(=O)NC2CCCC2)c2ccncc2)cc1 (stereo not drawn) | 12.1 |  | 29.1 µM [rising, single point]
38 | O=C(Nc1ccccc1F)c1cc(S(=O)(=O)N2CCOCC2)ccc1N1CCOCC1 | 31 | 16.4 µM [rising, single point] | 
39 | CCCNC(=O)C1CNc2ccccc2O1 (stereo not drawn) | 10.3 |  | 6.51 µM [falling, single point]
40 | Cc1ccc(C2=NCCNC2=O)c(C)c1 | -32.8 | 0.00517 µM [falling, full curve, poor fit] | 0.0146 µM [falling, full curve, poor fit]

Row | Compound | cell number change [%] | AC50 [1] | AC50 [2]
41 | O=C(Nc1cccc(C(=O)Nc2ccccc2F)c1)c1ccccc1 | 8.07 |  | 0.58 µM [rising, single point]
42 | CCCCOc1ccc(/C=C/C(=O)NCCc2nc3ccccc3[nH]2)cc1 |  |  | 20.6 µM [falling, partial curve]
43 | CC(Cc1ccccc1)N/C=C1\CC(=O)NC1=O (stereo not drawn) | -6.98 | 6.51 µM [rising, single point] | 5.17 µM [rising, single point]
44 | CCCN(C(=O)c1cccs1)c1nnc(-c2ccncc2)s1 | 1.22 |  | 
45 | CC(=O)Nc1ccc(S(=O)(=O)N2CCSC2c2ccco2)cc1 (stereo not drawn) | -19.3 |  | 20.6 µM [falling, partial curve]
46 | COc1ccc(NC(C)=O)cc1NC(=O)c1cccc(S(=O)(=O)N2CCN(Cc3ccccc3)CC2)c1 | 1.7 | 1.64 µM [falling, partial curve] | 
47 | O=S(=O)(Cc1noc(-c2ccc(Cl)cc2)n1)Cc1ccco1 | 9.78 | 0.184 µM [falling, full curve] | 0.326 µM [falling, full curve]
48 | CC(C)CNC(=O)COC(=O)Cc1ccc(Cl)cc1 | -2.73 |  | 
49 | CC(C)c1nc2cc(Cl)ccc2n(Cc2ccccc2)c1=O | 22.2 |  | 
50 | CCOc1ccccc1Nc1nc2ccccc2n2cnnc12 | 20.4 |  | 
51 | Cc1ccc(C(=O)N/C(=C\c2cccs2)C(=O)N2CCOCC2)cc1C | 30.8 | 29.1 µM [rising, single point] | 
52 | COc1ccc(/C=C2\N=C(C)OC2=O)cc1OC | -28.8 |  | 
53 | CC(C)(C)CN1CCNC[C@H]1Cc1cccc2ccccc12 | -88.1 | 16.4 µM [falling, partial curve] | 0.00517 µM [falling, full curve, poor fit]
54 | COc1cc(/C=C2\SC(=O)N(CC(=O)Nc3ccccc3F)C2=O)cc(Cl)c1O | -71.9 | 29.1 µM [falling, single point] | 29.1 µM [falling, single point]
55 | Cc1cccc(C)c1NC(=S)N1CC(C)OC(C)C1 (stereo not drawn) | -14 |  | 5.8 µM [falling, full curve, poor fit]
56 | CCOC(=O)C(=O)C1=C(N2CCOCC2)/C(=C\c2ccc(F)cc2)CC1 | -15.9 |  | 16.4 µM [rising, partial curve]
57 | CCCCOC(=O)C1=C(C)NC(=O)NC1c1cc2c(cc1Br)OCO2 (stereo not drawn) | -24.2 |  | 1.64 µM [rising, partial curve]
58 | COc1ccc(OC)c2c(N)c(C#N)c(C(F)(F)C(F)(F)F)nc12 |  | 6.51 µM [rising, single point] | 4.11 µM [rising, partial curve]
59 | CC(=O)Nc1cccc(C(=O)N(CCc2ccccc2)Cc2ccccc2)c1 | 15.7 |  | 
